From paper PMC11330527, “Structure and dimerization properties of the plant-specific copper chaperone CCH” (Scientific Reports, 2024)
No constants are given. Whether binding was seen depends on the method and setting.

Target: CCHΔ, truncation mutant of CCH lacking the C-terminal extension (Arabidopsis thaliana) (UniProt O82089)
Assay: condition: only both copies preloaded with copper (unlabeled chaperone 1.5 to 6.25 µM); MST; both copies preloaded with copper; labeled chaperone 20 nM, unlabeled chaperone 1.5 to 6.25 µM; 300 mM NaCl, 50 mM HEPES, 0.05% Tween-20, pH 7.5; room temperature; both purified

B1: CCHΔ, truncation mutant of CCH lacking the C-terminal extension (domain or fragment, UniProt O82089 1-70)
chain: MAQTVVLKVGMSCQGCVGAVNRVLGKMEGVESFDIDIKEQKVTVKGNVEPEAVFQTVSKTGKKTSYWPVE
modifications: Alexa Fluor 488 NHS ester on amines (only the labeled copy in MST)
Q: How did the binding turn out when B1 was run?
A: Its binding is “no binding”.
